Test results as given in publication PMC4908242, “Functional Characterization of a Small-Molecule Inhibitor of the DKK1-LRP6 Interaction” (ISRN Molecular Biology, 2012).
No constants are given. Whether binding was seen depends on the method and setting. Some results given as binding are weak or reduced against the parent protein; the word gives no strength. Where a sequence is shown, tags or fusion partners need not be part of it.

The chains behind the UniProt entries cited, without tags or fusion partners. Residues count along the entry.
UniProt O75581, residues 20-1613: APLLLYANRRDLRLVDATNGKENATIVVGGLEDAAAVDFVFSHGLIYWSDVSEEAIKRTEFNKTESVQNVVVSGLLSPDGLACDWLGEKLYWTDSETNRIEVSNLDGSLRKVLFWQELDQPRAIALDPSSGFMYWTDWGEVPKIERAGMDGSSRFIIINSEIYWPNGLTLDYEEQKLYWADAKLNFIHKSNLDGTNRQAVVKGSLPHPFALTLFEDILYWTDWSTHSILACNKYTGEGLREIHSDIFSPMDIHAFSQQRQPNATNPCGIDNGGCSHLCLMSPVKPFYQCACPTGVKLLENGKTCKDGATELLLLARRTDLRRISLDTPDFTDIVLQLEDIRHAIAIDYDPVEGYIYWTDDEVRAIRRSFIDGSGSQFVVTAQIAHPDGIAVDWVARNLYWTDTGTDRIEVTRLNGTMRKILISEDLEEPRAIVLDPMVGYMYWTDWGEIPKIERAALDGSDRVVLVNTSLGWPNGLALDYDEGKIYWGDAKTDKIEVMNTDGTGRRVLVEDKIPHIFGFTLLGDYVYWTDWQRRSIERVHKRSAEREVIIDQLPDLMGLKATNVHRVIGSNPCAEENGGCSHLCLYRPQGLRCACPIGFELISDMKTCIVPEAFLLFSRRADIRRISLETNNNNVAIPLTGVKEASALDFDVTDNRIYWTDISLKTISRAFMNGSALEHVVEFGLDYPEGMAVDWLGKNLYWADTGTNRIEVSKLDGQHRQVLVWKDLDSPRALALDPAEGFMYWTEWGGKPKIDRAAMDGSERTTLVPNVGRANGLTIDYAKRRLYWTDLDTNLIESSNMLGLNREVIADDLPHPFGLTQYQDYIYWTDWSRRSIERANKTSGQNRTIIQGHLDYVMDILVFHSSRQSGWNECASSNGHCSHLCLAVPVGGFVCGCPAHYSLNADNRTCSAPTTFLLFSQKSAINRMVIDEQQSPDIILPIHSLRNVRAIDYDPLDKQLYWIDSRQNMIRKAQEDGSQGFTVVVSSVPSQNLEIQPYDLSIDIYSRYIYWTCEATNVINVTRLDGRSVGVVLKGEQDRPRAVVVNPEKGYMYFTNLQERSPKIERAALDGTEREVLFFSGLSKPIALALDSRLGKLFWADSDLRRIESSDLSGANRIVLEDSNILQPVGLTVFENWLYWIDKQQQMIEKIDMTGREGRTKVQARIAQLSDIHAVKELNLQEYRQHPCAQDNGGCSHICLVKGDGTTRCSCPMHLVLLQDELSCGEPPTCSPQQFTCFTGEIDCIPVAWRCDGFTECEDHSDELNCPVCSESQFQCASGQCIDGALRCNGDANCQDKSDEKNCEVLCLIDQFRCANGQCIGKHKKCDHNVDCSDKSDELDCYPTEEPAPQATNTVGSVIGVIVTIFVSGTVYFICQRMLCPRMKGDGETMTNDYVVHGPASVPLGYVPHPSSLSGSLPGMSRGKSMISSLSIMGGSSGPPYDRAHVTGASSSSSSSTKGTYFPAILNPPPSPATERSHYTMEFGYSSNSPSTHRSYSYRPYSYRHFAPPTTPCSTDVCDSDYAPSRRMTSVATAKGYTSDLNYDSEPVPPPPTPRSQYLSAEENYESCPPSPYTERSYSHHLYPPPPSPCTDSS

Molecular target: full-length human LRP6 stably expressed on HEK293 cells (HEK293-LRP6) (human) (UniProt O75581)
Test: AP-DKK1 binding assay (alkaline phosphatase activity of cell-bound AP-DKK1); AP-DKK1 conditioned medium (20 mU/mL) on HEK293-LRP6 cells with increasing concentrations of NCI8642; AP activity in the cell lysate measured with AttoPhos substrate

B1: Commercial purified recombinant human DKK1 (ligand, UniProt O94907 32-266, looked up)
chain: TLNSVLNSNAIKNLPPPLGGAAGHPGSAVSAAPGILYPGGNKYQTIDNYQPYPCAEDEECGTDEYCASPTRGGDAGVQICLACRKRRKRCMRHAMCCPGNYCKNGICVSSDQNHFRGEIEETITESFGNDHSTLDGYSRRTTLSSKMYHTKGQEGSVCLRSSDCASGLCCARHFWSKICKPVLKEGQVCTKHRRKGSHGLEIFQRCYCGEGLSCRIQKDHHQASNSSRLHTCQRH
notes: Dickkopf 1 (DKK1), human, commercial recombinant protein; Neither catalogue number nor construct limits are printed; also called Dickkopf 1; commercial recombinant DKK1; source: bought: R&D Systems, purified recombinant
With B1 the binding was “binds”.
